Source: the supplement of paper PMC10849652
This is one part of the list.

Sequences of proteins named here, by UniProt entry; tags and fusion partners are left off. A change or cut given only in a name is not applied to a line headed by its entry.
UniProt P48723: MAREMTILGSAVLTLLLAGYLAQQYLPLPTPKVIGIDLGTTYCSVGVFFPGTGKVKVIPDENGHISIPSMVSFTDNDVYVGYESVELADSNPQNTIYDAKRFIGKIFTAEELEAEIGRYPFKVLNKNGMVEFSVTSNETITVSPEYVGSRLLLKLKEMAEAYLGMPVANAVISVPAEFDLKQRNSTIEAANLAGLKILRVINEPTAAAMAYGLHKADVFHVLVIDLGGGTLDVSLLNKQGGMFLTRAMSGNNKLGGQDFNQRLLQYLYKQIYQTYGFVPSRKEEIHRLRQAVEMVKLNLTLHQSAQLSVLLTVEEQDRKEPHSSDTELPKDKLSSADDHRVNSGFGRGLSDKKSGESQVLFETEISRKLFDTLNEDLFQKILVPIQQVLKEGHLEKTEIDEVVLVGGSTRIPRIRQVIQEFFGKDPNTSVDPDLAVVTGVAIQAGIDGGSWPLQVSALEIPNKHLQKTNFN
UniProt P52272: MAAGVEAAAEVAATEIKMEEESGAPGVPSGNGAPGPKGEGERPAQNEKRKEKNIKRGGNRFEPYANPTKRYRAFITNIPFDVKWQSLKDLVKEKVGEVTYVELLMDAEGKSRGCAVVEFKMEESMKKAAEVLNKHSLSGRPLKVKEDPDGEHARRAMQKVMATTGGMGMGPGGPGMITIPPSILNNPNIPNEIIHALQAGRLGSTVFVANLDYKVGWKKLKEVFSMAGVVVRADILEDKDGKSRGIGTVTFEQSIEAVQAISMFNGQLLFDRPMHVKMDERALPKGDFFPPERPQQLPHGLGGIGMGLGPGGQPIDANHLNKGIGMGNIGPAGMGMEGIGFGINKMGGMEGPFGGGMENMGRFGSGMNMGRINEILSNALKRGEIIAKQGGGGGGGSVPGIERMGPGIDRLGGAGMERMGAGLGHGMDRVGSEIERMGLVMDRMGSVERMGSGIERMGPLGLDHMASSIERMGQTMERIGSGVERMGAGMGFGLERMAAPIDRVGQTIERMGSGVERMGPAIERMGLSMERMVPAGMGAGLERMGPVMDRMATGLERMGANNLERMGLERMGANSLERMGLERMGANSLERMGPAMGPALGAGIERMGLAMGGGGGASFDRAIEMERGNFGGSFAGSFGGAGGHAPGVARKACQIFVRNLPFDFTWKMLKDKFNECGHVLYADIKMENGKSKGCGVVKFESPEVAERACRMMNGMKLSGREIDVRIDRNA
UniProt P26583: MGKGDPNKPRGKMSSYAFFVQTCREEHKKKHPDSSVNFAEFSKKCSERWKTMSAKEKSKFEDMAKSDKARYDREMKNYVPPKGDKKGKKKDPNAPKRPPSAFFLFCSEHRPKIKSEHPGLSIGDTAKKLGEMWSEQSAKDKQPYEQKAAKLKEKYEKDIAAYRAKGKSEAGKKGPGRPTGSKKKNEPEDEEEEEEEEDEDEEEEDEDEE
UniProt P51991: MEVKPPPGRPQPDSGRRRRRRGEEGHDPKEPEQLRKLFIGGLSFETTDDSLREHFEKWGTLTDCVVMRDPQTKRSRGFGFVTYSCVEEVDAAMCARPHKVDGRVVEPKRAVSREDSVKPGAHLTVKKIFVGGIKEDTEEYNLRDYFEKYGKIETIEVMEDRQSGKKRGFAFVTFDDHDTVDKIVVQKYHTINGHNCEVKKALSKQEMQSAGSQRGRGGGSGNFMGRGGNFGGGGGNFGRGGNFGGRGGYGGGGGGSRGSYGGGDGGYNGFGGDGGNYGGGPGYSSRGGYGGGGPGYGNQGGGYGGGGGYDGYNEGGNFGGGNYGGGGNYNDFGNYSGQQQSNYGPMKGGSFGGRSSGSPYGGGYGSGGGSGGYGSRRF
UniProt Q6NVY1: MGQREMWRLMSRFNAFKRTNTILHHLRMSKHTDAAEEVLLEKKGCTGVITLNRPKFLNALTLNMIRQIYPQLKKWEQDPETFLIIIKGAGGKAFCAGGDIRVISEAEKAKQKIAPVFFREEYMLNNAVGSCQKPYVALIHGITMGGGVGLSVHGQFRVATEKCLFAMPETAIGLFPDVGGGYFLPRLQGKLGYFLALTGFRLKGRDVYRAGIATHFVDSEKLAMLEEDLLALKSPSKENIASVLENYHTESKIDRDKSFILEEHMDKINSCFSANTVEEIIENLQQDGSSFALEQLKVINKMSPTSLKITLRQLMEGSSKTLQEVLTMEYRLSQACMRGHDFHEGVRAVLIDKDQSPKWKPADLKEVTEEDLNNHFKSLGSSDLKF
UniProt Q9NX55: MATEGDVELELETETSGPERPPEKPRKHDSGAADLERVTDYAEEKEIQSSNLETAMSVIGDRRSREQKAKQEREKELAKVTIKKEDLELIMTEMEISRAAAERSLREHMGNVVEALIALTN
UniProt P82970: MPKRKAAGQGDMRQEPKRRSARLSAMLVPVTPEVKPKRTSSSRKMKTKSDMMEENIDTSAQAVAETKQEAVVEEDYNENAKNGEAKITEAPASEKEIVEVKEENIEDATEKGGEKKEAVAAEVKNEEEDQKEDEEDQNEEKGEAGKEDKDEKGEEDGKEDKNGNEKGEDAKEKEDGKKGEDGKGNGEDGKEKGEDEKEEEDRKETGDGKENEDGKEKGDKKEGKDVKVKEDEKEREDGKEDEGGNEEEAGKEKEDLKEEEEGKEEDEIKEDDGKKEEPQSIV
UniProt Q92598: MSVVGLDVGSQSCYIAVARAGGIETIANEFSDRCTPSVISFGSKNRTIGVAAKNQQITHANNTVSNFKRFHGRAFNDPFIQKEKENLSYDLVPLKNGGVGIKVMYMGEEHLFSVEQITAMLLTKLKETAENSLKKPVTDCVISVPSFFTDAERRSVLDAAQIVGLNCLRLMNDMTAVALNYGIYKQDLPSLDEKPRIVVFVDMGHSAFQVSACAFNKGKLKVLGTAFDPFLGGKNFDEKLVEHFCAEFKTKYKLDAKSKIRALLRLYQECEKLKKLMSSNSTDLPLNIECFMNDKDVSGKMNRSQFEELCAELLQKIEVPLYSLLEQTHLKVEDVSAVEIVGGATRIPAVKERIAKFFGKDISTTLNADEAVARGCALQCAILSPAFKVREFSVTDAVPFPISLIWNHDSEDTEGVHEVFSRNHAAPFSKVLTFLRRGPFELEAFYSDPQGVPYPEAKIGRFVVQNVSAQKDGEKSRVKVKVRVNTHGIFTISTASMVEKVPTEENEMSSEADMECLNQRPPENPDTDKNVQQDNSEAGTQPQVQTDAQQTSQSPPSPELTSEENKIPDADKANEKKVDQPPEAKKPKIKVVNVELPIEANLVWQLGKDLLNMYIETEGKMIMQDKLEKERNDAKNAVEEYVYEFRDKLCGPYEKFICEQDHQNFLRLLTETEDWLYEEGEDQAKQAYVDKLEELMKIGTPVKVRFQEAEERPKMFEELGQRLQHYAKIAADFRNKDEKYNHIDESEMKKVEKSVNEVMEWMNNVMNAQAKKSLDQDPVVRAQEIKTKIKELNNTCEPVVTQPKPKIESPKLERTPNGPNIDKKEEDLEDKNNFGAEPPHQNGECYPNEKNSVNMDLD
UniProt O95757: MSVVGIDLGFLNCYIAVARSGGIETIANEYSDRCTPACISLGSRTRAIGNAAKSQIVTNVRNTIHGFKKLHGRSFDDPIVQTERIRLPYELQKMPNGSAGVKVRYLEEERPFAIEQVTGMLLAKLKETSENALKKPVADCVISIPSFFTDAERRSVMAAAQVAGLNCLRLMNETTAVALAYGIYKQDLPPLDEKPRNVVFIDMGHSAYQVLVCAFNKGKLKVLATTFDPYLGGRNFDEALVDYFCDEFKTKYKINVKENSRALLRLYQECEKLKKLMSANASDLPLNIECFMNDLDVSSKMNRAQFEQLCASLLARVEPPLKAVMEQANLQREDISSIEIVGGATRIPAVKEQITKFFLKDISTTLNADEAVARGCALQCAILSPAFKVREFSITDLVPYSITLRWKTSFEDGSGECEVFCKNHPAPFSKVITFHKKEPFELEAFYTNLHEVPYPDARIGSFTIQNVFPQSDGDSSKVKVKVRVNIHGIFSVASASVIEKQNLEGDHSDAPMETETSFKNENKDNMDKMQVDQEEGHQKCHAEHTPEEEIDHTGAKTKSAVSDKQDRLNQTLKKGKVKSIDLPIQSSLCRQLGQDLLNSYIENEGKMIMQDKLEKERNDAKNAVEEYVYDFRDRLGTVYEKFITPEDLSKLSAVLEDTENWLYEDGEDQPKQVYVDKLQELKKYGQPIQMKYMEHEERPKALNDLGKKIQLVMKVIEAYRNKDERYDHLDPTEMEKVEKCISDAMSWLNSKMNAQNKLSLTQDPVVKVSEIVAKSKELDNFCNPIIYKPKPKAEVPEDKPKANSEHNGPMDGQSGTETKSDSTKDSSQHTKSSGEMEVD
UniProt Q99714: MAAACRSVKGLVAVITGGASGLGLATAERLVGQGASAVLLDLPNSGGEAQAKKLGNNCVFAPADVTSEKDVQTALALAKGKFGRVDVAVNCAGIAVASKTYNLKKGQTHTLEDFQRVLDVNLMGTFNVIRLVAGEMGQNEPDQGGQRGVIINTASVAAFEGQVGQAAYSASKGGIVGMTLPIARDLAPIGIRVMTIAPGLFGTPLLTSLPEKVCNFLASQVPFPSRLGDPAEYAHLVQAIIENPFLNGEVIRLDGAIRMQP
UniProt P17096: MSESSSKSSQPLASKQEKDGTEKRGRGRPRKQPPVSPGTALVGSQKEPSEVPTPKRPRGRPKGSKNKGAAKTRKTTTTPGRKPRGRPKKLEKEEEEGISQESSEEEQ
UniProt Q8IWL3: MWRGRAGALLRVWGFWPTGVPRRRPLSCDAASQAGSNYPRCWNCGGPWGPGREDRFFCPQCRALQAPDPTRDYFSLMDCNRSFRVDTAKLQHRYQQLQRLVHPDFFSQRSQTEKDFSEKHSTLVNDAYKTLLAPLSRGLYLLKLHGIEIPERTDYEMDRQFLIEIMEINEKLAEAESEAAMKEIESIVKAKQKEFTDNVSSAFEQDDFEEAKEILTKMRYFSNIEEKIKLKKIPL
UniProt P49773: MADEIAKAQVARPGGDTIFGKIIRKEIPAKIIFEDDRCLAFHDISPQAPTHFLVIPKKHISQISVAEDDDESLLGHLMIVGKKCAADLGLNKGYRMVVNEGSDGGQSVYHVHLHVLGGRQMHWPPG
UniProt P31942: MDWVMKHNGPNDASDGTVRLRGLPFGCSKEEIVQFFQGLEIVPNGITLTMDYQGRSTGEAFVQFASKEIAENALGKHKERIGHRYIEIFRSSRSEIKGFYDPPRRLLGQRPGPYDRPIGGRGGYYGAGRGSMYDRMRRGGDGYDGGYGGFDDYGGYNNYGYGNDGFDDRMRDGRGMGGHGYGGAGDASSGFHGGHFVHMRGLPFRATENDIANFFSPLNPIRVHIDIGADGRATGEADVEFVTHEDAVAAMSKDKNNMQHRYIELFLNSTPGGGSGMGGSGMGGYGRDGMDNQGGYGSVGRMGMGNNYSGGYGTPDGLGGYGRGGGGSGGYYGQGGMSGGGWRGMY
UniProt Q14103: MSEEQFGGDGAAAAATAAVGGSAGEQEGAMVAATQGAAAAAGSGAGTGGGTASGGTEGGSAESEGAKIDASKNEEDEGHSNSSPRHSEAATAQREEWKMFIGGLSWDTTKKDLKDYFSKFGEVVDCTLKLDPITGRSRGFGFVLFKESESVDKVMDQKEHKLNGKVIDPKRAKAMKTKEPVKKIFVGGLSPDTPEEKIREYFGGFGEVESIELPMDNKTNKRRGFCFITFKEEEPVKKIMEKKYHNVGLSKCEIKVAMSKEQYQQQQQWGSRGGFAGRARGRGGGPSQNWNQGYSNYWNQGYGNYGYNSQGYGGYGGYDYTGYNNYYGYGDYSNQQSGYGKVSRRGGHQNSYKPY

Legend:
Assay in all cases: log2 fold change, soluble protein after heating vs DMSO (PISA); higher = thermal stabilisation; K562 cells, 10 uM, 30 min; active = over 0.2 and 3.5 SD of the protein, either way, in both replicates (recomputed)
[1] = compound: COC1=CC=C(C=C1)CN2C=CC3=C2C=C(C=C3)C(=O)NO
Outline: (§1)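 For each measurement, 10 μM compound was applied for 30 min to K562 cells at 2×10^6 cells/mL. Aliquots were heated for 3 min across 48°C-58°C, pooled, and extracted in PBS with 0.5% NP-40 at 4°C; the supernatant after 21,000xg for 90 min was soluble protein. This was quantified by TMTpro 16plex LC-MS/MS with channel sums equalised, and thermal stability was reported relative to control samples from duplicates, on a log2 fold-change scale.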

filanesib = compound: CON(C)C(=O)N1N=C(c2cc(F)ccc2F)S[C@@]1(CCCN)c1ccccc1 [filanesib]
Outline: as §1

zotarolimus = compound: CO[C@H]1C[C@@H]2CC[C@@H](C)[C@@](O)(O2)C(=O)C(=O)N2CCCC[C@H]2C(=O)O[C@H]([C@H](C)C[C@@H]2CC[C@H](n3cnnn3)[C@H](OC)C2)CC(=O)[C@H](C)/C=C(\C)[C@@H](O)[C@@H](OC)C(=O)[C@H](C)C[C@H](C)/C=C/C=C/C=C/1C [zotarolimus]
Outline: as §1

idasanutlin = compound: COc1cc(C(=O)O)ccc1NC(=O)[C@@H]1N[C@@H](CC(C)(C)C)[C@](C#N)(c2ccc(Cl)cc2F)[C@H]1c1cccc(Cl)c1F [idasanutlin]
Outline: as §1

alisertib = compound: COc1cc(Nc2ncc3c(n2)-c2ccc(Cl)cc2C(c2c(F)cccc2OC)=NC3)ccc1C(=O)O [alisertib]
Outline: as §1

[2] = compound: COc1cc2nc(-c3cc(F)ccc3O)nc(N[C@@H]3CNC[C@H]3C(C)(C)O)c2cc1OC
Outline: as §1

gefitinib = compound: COc1cc2ncnc(Nc3ccc(F)c(Cl)c3)c2cc1OCCCN1CCOCC1 [gefitinib]
Outline: as §1

[3] = compound: COc1cccc2cc(-c3nc([C@H]4CC[C@H](C(=O)O)CC4)n4ncnc(N)c34)[nH]c12
Outline: as §1

lapatinib = compound: CS(=O)(=O)CCNCc1ccc(-c2ccc3ncnc(Nc4ccc(OCc5cccc(F)c5)c(Cl)c4)c3c2)o1 [lapatinib]
Outline: as §1

pictilisib = compound: CS(=O)(=O)N1CCN(Cc2cc3nc(-c4cccc5[nH]ncc45)nc(N4CCOCC4)c3s2)CC1 [pictilisib]
Outline: as §1

[4] = compound: CS(=O)(=O)c1ccc(-c2cnc(N)c(C(=O)Nc3ccccc3)n2)cc1
Outline: as §1

crizotinib = compound: C[C@@H](Oc1cc(-c2cnn(C3CCNCC3)c2)cnc1N)c1c(Cl)ccc(F)c1Cl [crizotinib]
Outline: as §1

[5] = compound: C[C@@H]1COCCN1C2=NC(=NC(=C2)C3(CC3)S(=O)(=O)C)C4=C5C=CNC5=CC=C4
Outline: as §1

[6] = compound: C[C@H](C1=CC=C(C=C1)C(=O)NC2=C3C=CNC3=NC=C2)N
Outline: as §1

duvelisib = compound: C[C@H](Nc1ncnc2nc[nH]c12)c1cc2cccc(Cl)c2c(=O)n1-c1ccccc1 [duvelisib]
Outline: as §1

gandotinib = compound: Cc1cc(Nc2cc(CN3CCOCC3)c3nc(C)c(Cc4ccc(Cl)cc4F)n3n2)n[nH]1 [gandotinib]
Outline: as §1

tozasertib = compound: Cc1cc(Nc2cc(N3CCN(C)CC3)nc(Sc3ccc(NC(=O)C4CC4)cc3)n2)n[nH]1 [tozasertib]
Outline: as §1

[7] = compound: Cc1cc(SCc2sc(-c3ccc(C(F)(F)F)cc3)nc2C)ccc1OCC(=O)O
Outline: as §1

doramapimod = compound: Cc1ccc(-n2nc(C(C)(C)C)cc2NC(=O)Nc2ccc(OCCN3CCOCC3)c3ccccc23)cc1 [doramapimod]
Outline: as §1

ispinesib = compound: Cc1ccc(C(=O)N(CCCN)[C@@H](c2nc3cc(Cl)ccc3c(=O)n2Cc2ccccc2)C(C)C)cc1 [ispinesib]
Outline: as §1

Measured: log2 fold change

HSPA13 (UniProt P48723)
inactive: [1] -0.012 | filanesib 0.023 | zotarolimus 0.059 | idasanutlin -0.056 | alisertib 0.001 | [2] -0.001 | gefitinib 0.021 | [3] 0 | lapatinib 0.023 | pictilisib -0.064 | [4] -0.003 | crizotinib -0.012 | [5] -0.043 | [6] -0.032 | duvelisib 0.006 | gandotinib -0.048 | tozasertib 0.033 | [7] 0.006 | doramapimod 0.042 | ispinesib -0.006

HNRNPM (UniProt P52272)
inactive: [1] -0.101 | filanesib 0.238 | zotarolimus 0.06 | idasanutlin 0.295 | alisertib 0.056 | [2] -0.153 | gefitinib -0.031 | [3] -0.25 | lapatinib 0.075 | pictilisib -0.09 | [4] -0.062 | crizotinib -0.009 | [5] -0.288 | [6] 0.356 | duvelisib -0.076 | gandotinib 0.116 | tozasertib 0.088 | [7] 0.086 | doramapimod 0.105 | ispinesib -0.219

HMGB2 (UniProt P26583)
inactive: [1] 0.212 | filanesib -0.068 | zotarolimus 0.012 | idasanutlin -0.004 | alisertib -0.056 | [2] -0.066 | gefitinib -0.015 | [3] 0.019 | lapatinib 0.041 | pictilisib 0.019 | [4] -0.045 | crizotinib -0.009 | [5] -0.087 | [6] -0.046 | duvelisib 0.023 | gandotinib 0.033 | tozasertib -0.03 | [7] 0.012 | doramapimod -0.001 | ispinesib 0.074

HNRNPA3 (UniProt P51991)
inactive: [1] -0.129 | filanesib 0.422 | zotarolimus -0.115 | idasanutlin 0.35 | alisertib -0.083 | [2] -0.005 | gefitinib -0.064 | [3] -0.142 | lapatinib 0.054 | pictilisib -0.408 | [4] -0.166 | crizotinib 0.066 | [5] -0.393 | [6] 0.324 | duvelisib -0.183 | gandotinib -0.002 | tozasertib 0.175 | [7] 0.055 | doramapimod 0.046 | ispinesib -0.07

HSP90AA1 isoform 2 (UniProt P07900)
inactive: [1] 0.001 | filanesib -0.069 | zotarolimus 0.049 | idasanutlin -0.017 | alisertib -0.049 | [2] -0.005 | gefitinib -0.032 | [3] -0.011 | lapatinib -0.002 | pictilisib -0.004 | [4] 0.041 | crizotinib -0.028 | [5] 0.05 | [6] -0.064 | duvelisib 0.012 | gandotinib -0.089 | tozasertib 0.011 | [7] 0.023 | doramapimod -0.012 | ispinesib -0.006

Quoted at random: 2 entries already listed.
HNRNPM (UniProt P52272)
inactive: [1] -0.101 | filanesib 0.238 | zotarolimus 0.06 | idasanutlin 0.295 | alisertib 0.056 | [2] -0.153 | gefitinib -0.031 | [3] -0.25 | lapatinib 0.075 | pictilisib -0.09 | [4] -0.062 | crizotinib -0.009 | [5] -0.288 | [6] 0.356 | duvelisib -0.076 | gandotinib 0.116 | tozasertib 0.088 | [7] 0.086 | doramapimod 0.105 | ispinesib -0.219

HMGB2 (UniProt P26583)
inactive: [1] 0.212 | filanesib -0.068 | zotarolimus 0.012 | idasanutlin -0.004 | alisertib -0.056 | [2] -0.066 | gefitinib -0.015 | [3] 0.019 | lapatinib 0.041 | pictilisib 0.019 | [4] -0.045 | crizotinib -0.009 | [5] -0.087 | [6] -0.046 | duvelisib 0.023 | gandotinib 0.033 | tozasertib -0.03 | [7] 0.012 | doramapimod -0.001 | ispinesib 0.074

Later entries

HIBCH (UniProt Q6NVY1)
inactive: [1] 0.092 | filanesib -0.145 | zotarolimus 0.016 | idasanutlin -0.027 | alisertib -0.009 | [2] -0.011 | gefitinib 0.001 | [3] 0.031 | lapatinib 0.005 | pictilisib 0.068 | [4] 0.032 | crizotinib -0.054 | [5] 0.161 | [6] -0.023 | duvelisib 0.036 | gandotinib -0.088 | tozasertib -0.057 | [7] 0.041 | doramapimod -0.009 | ispinesib -0.05

HYPK (UniProt Q9NX55)
inactive: [1] -0.037 | filanesib -0.038 | zotarolimus 0.039 | idasanutlin -0.041 | alisertib -0.071 | [2] 0.007 | gefitinib -0.016 | [3] 0.022 | lapatinib -0.011 | pictilisib 0.041 | [4] 0.005 | crizotinib 0.01 | [5] 0.056 | [6] -0.013 | duvelisib 0.055 | gandotinib -0.028 | tozasertib -0.03 | [7] -0.031 | doramapimod 0.04 | ispinesib 0.041

HMGN5 (UniProt P82970)
inactive: [1] 0.004 | filanesib 0.002 | zotarolimus -0.055 | idasanutlin -0.046 | alisertib -0.034 | [2] 0.016 | gefitinib 0.019 | [3] 0.031 | lapatinib -0.016 | pictilisib -0.018 | [4] 0.013 | crizotinib 0.098 | [5] -0.004 | [6] -0.032 | duvelisib 0.045 | gandotinib 0.076 | tozasertib 0.063 | [7] -0.044 | doramapimod -0.031 | ispinesib 0.079

HSPH1 (UniProt Q92598)
inactive: [1] 0.056 | filanesib -0.017 | zotarolimus 0.045 | idasanutlin -0.023 | alisertib -0.031 | [2] 0.026 | gefitinib 0.011 | [3] -0.073 | lapatinib 0.001 | pictilisib -0.009 | [4] 0.026 | crizotinib 0.04 | [5] -0.003 | [6] -0.036 | duvelisib 0.01 | gandotinib -0.079 | tozasertib 0.041 | [7] 0.037 | doramapimod -0.048 | ispinesib 0.043

HSPA4L (UniProt O95757)
inactive: [1] -0.028 | filanesib -0.012 | zotarolimus 0.037 | idasanutlin -0.039 | alisertib -0.01 | [2] 0.035 | gefitinib 0.015 | [3] 0.003 | lapatinib -0.014 | pictilisib -0.039 | [4] 0.011 | crizotinib 0.067 | [5] 0.057 | [6] -0.041 | duvelisib 0.005 | gandotinib 0.001 | tozasertib 0.028 | [7] -0.02 | doramapimod -0.027 | ispinesib 0.037

HSD17B10 (UniProt Q99714)
inactive: [1] 0.155 | filanesib -0.153 | zotarolimus 0.025 | idasanutlin -0.045 | alisertib -0.127 | [2] -0.049 | gefitinib 0.043 | [3] 0.004 | lapatinib 0.055 | pictilisib -0.015 | [4] -0.043 | crizotinib 0.109 | [5] 0.059 | [6] -0.115 | duvelisib 0.05 | gandotinib 0.028 | tozasertib -0.037 | [7] 0.005 | doramapimod 0.015 | ispinesib 0.151

HMGA1 (UniProt P17096)
inactive: [1] -0.024 | filanesib 0.13 | zotarolimus -0.019 | idasanutlin 0.299 | alisertib -0.022 | [2] -0.146 | gefitinib -0.071 | [3] -0.008 | lapatinib 0.025 | pictilisib -0.27 | [4] -0.14 | crizotinib 0.008 | [5] -0.244 | [6] 0.126 | duvelisib -0.153 | gandotinib -0.033 | tozasertib 0.014 | [7] -0.045 | doramapimod 0.056 | ispinesib -0.13

HSCB (UniProt Q8IWL3)
inactive: [1] -0.101 | filanesib -0.111 | zotarolimus 0.022 | idasanutlin -0.042 | alisertib 0.064 | [2] -0.031 | gefitinib 0 | [3] -0.064 | lapatinib 0.028 | pictilisib 0.078 | [4] 0.081 | crizotinib -0.022 | [5] -0.006 | [6] -0.074 | duvelisib 0.068 | gandotinib -0.001 | tozasertib 0.036 | [7] -0.048 | doramapimod 0.082 | ispinesib -0.015

HINT1 (UniProt P49773)
inactive: [1] 0.085 | filanesib 0.021 | zotarolimus 0.009 | idasanutlin 0.027 | alisertib 0.019 | [2] -0.068 | gefitinib 0.001 | [3] 0.018 | lapatinib -0.093 | pictilisib 0.083 | [4] 0.033 | crizotinib 0.082 | [5] 0.16 | [6] -0.148 | duvelisib 0.112 | gandotinib 0.008 | tozasertib 0.053 | [7] -0.029 | doramapimod -0.085 | ispinesib 0.13

HNRNPH3 (UniProt P31942)
inactive: [1] -0.013 | filanesib 0.286 | zotarolimus 0.029 | idasanutlin 0.203 | alisertib -0.029 | [2] -0.023 | gefitinib 0.014 | [3] -0.157 | lapatinib -0.005 | pictilisib -0.09 | [4] -0.075 | crizotinib -0.089 | [5] -0.181 | [6] 0.516 | duvelisib -0.072 | gandotinib 0.207 | tozasertib -0.013 | [7] 0.125 | doramapimod 0.059 | ispinesib -0.151

HNRNPD (UniProt Q14103)
inactive: [1] -0.037 | filanesib 0.266 | zotarolimus -0.02 | idasanutlin 0.07 | alisertib -0.075 | [2] 0.001 | gefitinib -0.057 | [3] -0.041 | lapatinib 0.06 | pictilisib -0.021 | [4] -0.097 | crizotinib 0.099 | [5] -0.218 | [6] 0.202 | duvelisib -0.119 | gandotinib 0.106 | tozasertib -0.011 | [7] -0.017 | doramapimod 0.052 | ispinesib -0.071
